Assay results from the supplement of paper PMC10689618.
Where a name gives a salt, the structure may show the parent alone. The list shows a part of the results. Repeats are few or missing, and single values can be far off.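 Labelled rat cortical synaptosomes were engulfed by primary human fetal astrocytes. Engulfment equaled a red/green ratio, corrected for calcein live-cell signal and normalized to the plate median. Compounds were toxic when calcein dropped over 30%, and reduced phagocytosis when below 70% of the median above 5 µM.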

Columns and labels:
Human fetal astrocytes [1] = assay: loss of total cells relative to no-compound high-control median (toxicity); higher = more toxic (fewer cells); conditions: 24 h
Human fetal astrocytes [2] = assay: synaptosome phagocytosis (pHrodo/calcein intensity ratio) relative to plate median of data wells; higher = more phagocytosis; conditions: 24 h

| SMILES | loss of total cells (Human fetal astrocytes [1]; 1.39 µM) | loss of total cells (Human fetal astrocytes [1]; 2.78 µM) | loss of total cells (Human fetal astrocytes [1]; 5.56 µM) | loss of total cells (Human fetal astrocytes [1]; 11.11 µM) | loss of total cells (Human fetal astrocytes [1]; 22.22 µM) | synaptosome phagocytosis (Human fetal astrocytes [2]; 1.39 µM) | synaptosome phagocytosis (Human fetal astrocytes [2]; 2.78 µM) | synaptosome phagocytosis (Human fetal astrocytes [2]; 5.56 µM) | synaptosome phagocytosis (Human fetal astrocytes [2]; 11.11 µM) | synaptosome phagocytosis (Human fetal astrocytes [2]; 22.22 µM) |
| --- | --- | --- | --- | --- | --- | --- | --- | --- | --- | --- |
| NCCc1ccc(O)cc1 [4-Hydroxyphenethylamine hydrochloride] | -6.5% | -11.7% | -14% | 4.2% | -22.2% | 110% | 99.8% | 96.3% | 105% | 105% |
| C#CCOC(=O)C1=CCCN(C)C1 [Arecaidine propargyl ester hydrobromide] | -9.5% | -20.8% | -13.4% | 26.5% | 6.4% | 122% | 79.4% | 99.1% | 96.9% | 103% |
| O=[N+]([O-])c1ccc(O[C@@H]2O[C@H](CO)[C@@H](O)[C@H](O)[C@H]2F)c([N+](=O)[O-])c1 [2,4-Dinitrophenyl 2-fluoro-2-deoxy-beta-D-glucopyranoside] | 18% | -11.1% | -18.1% | -1.3% | -5.6% | 102% | 103% | 112% | 117% | 120% |
| COc1cc(C[C@@H](C)N)c(OC)cc1I [( R)-(-)-DOI hydrochloride] | 5.4% | 8.5% | -4.1% | -11.2% | 15.2% | 70.5% | 82.4% | 84.6% | 96.3% | 107% |
| N#C/C(=C\c1ccc(O)c(O)c1)C(N)=S [Tyrphostin 47] | -10.9% | -18.9% | -1.7% | -0.4% | -4.9% | 103% | 126% | 122% | 110% | 115% |
| CC1C2Cc3ccc(O)cc3C1(C)CCN2CC1CC1 (single isomer, unassigned; (+)) [(+)-Cyclazocine] | -13% | -12.8% | -8.2% | -18.4% | 4.8% | 81.5% | 87.4% | 90.7% | 87.3% | 104% |
| NC(CP(=O)(O)O)C(=O)O (racemic) [(±)-2-Amino-3-phosphonopropionic acid] | -13.9% | 2.7% | -18.9% | -21.1% | -3.4% | 82.7% | 73.5% | 66.3% | 112% | 117% |
| C[C@@H]1O[C@H](C[N+](C)(C)C)CS1 [OXA-22 iodide] | -18% | -6.8% | -9.1% | -19.3% | -6.4% | 72.7% | 75.9% | 119% | 97.7% | 110% |
| CCC1(C2=NCCN2)Cc2ccccc2O1 (stereo not given) [Efaroxan hydrochloride] | 1.3% | -21.4% | 5.8% | -11.2% | 0.8% | 103% | 70.3% | 68.1% | 110% | 135% |
| CC(=O)NCCc1c[nH]c2ccccc12 [N-Acetyltryptamine] | -1.5% | -9.6% | -0.5% | -17.5% | -4.9% | 74.6% | 116% | 74.2% | 106% | 95.7% |
| CC(Cc1ccc(OCC(=O)O)cc1)NCC(O)c1cccc(Cl)c1 (stereo not given) | -25.7% | -11.7% | -13.4% | -24.7% | -2.6% | 102% | 100% | 66.5% | 98.2% | 121% |
| COc1cc(CCN)ccc1O [3-Methoxy-4-hydroxyphenethylamine hydrochloride] | -14.7% | 12.2% | -8.9% | 9.5% | -15% | 85.4% | 54.4% | 102% | 79.2% | 100% |
| N=C(NCCC[C@H](N)C(=O)O)N[N+](=O)[O-] [NG-Nitro-L-arginine] | -4.3% | 4.1% | 12.7% | 19% | 14% | 105% | 106% | 121% | 97% | 145% |
| CCCN1CC[C@@H]2c3cc(O)ccc3CC[C@@H]21 (racemic) [cis-(±)-8-OH-PBZI hydrobromide] | 3.3% | 2.3% | 16.4% | 24.8% | 15.9% | 114% | 79.3% | 95% | 89.7% | 144% |
| NCCCP(=O)(O)O [3-Aminopropylphosphonic acid] | -13.6% | -4.2% | 6.9% | 11.2% | 0.4% | 79% | 81.1% | 79.8% | 98.9% | 77.7% |
| C/C=C(/C)C(=O)O[C@H]1C(C)=C2[C@H]([C@@H]1OC(=O)CCCCCCC)[C@@](C)(OC(C)=O)C[C@H](OC(=O)CCC)[C@@]1(O)[C@H]2OC(=O)[C@@]1(C)O [Thapsigargin] | -18.3% | -0.3% | 5.1% | 20.3% | 6.6% | 85.1% | 79.6% | 86.1% | 29% | 61.2% |
| O=C(O)c1nn(Cc2ccc(Cl)cc2Cl)c2ccccc12 [Lonidamine] | -14.7% | 4.1% | 1.4% | 8.6% | 15% | 96.3% | 74.2% | 70% | 77% | 69.9% |
| N=C(N)NN [Aminoguanidine hemisulfate] | -26.8% | -13.2% | -10.6% | -9.4% | 7.9% | 99.3% | 90.8% | 90.7% | 94.4% | 113% |
| COC(=O)[C@@H](N)CCCNC(=N)N[N+](=O)[O-] [NG-Nitro-L-arginine methyl ester hydrochloride] | -20.4% | -6.8% | 11.7% | -1% | 7.5% | 88.2% | 137% | 95.5% | 111% | 150% |

| SMILES | loss of total cells (Human fetal astrocytes [1]; 1.39 µM) | loss of total cells (Human fetal astrocytes [1]; 2.78 µM) | loss of total cells (Human fetal astrocytes [1]; 5.56 µM) | loss of total cells (Human fetal astrocytes [1]; 11.11 µM) | loss of total cells (Human fetal astrocytes [1]; 22.22 µM) | synaptosome phagocytosis (Human fetal astrocytes [2]; 1.39 µM) | synaptosome phagocytosis (Human fetal astrocytes [2]; 2.78 µM) | synaptosome phagocytosis (Human fetal astrocytes [2]; 5.56 µM) | synaptosome phagocytosis (Human fetal astrocytes [2]; 11.11 µM) | synaptosome phagocytosis (Human fetal astrocytes [2]; 22.22 µM) |
| --- | --- | --- | --- | --- | --- | --- | --- | --- | --- | --- |
| Cn1cnc(CCN)c1 [1-Methylhistamine dihydrochloride] | -16.6% | 16.7% | 12.7% | 22.9% | 18.7% | 102% | 73% | 128% | 104% | 109% |
| COc1ccc2c(c1)/C(=C/c1cnc[nH]1)C(=O)N2 | -14.7% | -6.8% | -3.3% | 10.5% | 8.4% | 92.7% | 63.3% | 83.6% | 79.5% | 37.5% |
| Clc1cc(I)cc(Cl)c1NC1=NCCN1 [p-Iodoclonidine hydrochloride] | -12.8% | 8.6% | 19.2% | 17.1% | 13.1% | 69.1% | 88.9% | 134% | 120% | 154% |
| CCCN(CCC)[C@H]1CCc2c(F)ccc(O)c2C1 [S(-)-UH-301 hydrochloride] | -11.5% | -7.5% | -7.3% | -2.7% | -2.5% | 94.4% | 100% | 93.2% | 115% | 84.9% |
| CC(N)c1cccc(Cl)c1Cl (racemic) [(±)-2,3-Dichloro-alpha-methylbenzylamine hydrochloride] | 7.9% | 4.3% | -8.2% | -10.3% | -8.8% | 92.3% | 88.8% | 108% | 105% | 96% |
| CCCN1CCC[C@H](c2cccc(O)c2)C1 [R(+)-3PPP hydrochloride] | -15.2% | -27.8% | -17.4% | -18% | -9.9% | 108% | 116% | 119% | 106% | 116% |
| CC(=O)OCC1=C(C(=O)[O-])N2C(=O)[C@@H](NC(=O)CCC[C@@H](N)C(=O)[O-])[C@H]2SC1.[Zn+2] [Cephalosporin C zinc salt] | 9.9% | -15.3% | -16.1% | -4% | 16.2% | 139% | 124% | 94.3% | 102% | 117% |
| CCCN(CCC)C1Cc2cc(OC)c(OC)cc2C1 | -22% | -18.3% | -8.4% | -15.7% | -11.5% | 104% | 90.9% | 97.2% | 92.1% | 106% |
| C[C@@]12C(=O)OC(=O)[C@]1(C)[C@H]1CC[C@@H]2O1 [Cantharidin] | -16.9% | -0.9% | -10.6% | 4.9% | 23.7% | 111% | 146% | 103% | 125% | 118% |
| Oc1ccc2c3c1O[C@H]1[C@@H](O)CC[C@@]4(O)[C@@H](C2)N(CC2CCC2)CC[C@]314 [Nalbuphine hydrochloride] | 7.1% | 3.2% | 2.3% | 17.1% | 11.2% | 122% | 108% | 74.4% | 79.6% | 124% |
| NC(=O)CN1CC(O)CC1=O (stereo not given) [Oxiracetam] | -5.2% | 3.2% | 11.7% | 4.8% | 0.9% | 111% | 109% | 79.4% | 98% | 135% |
| O=c1[nH]c2ccccc2n1CCCN1CCC(n2c(=O)[nH]c3cc(Cl)ccc32)CC1 [Domperidone] | 5.4% | -12% | -7.4% | -17.5% | -18.4% | 106% | 93.5% | 73.3% | 93.6% | 91.5% |
| C=CCN1CC[C@]23c4c5ccc(O)c4O[C@H]2C(=O)CC[C@@]3(O)[C@H]1C5 [Naloxone hydrochloride] | -5.2% | 8.6% | 7% | 4.8% | 15% | 116% | 85.3% | 116% | 82% | 104% |
| C[C@H]1OC[C@@H](C[N+](C)(C)C)O1 [(+)-cis-Dioxolane iodide] | 18% | -1.7% | -9.1% | -11.2% | -4% | 114% | 83.1% | 95.4% | 108% | 106% |
| COc1cc(C(O)CN)ccc1O (racemic) [(±)-Normetanephrine hydrochloride] | -13.7% | -9.5% | -8% | 11.4% | 6.5% | 93.7% | 98.1% | 118% | 110% | 122% |
| Ic1ccccc1CNC1C2CCN(CC2)C1C(c1ccccc1)c1ccccc1 [L-703,606 oxalate] | 16.6% | -8.6% | -1.4% | 21.9% | 54.2% | 89.7% | 67.3% | 85.1% | 49.2% | 23.1% |
| c1ccc2c(c1)OCC(C1=NCCN1)O2 (stereo not given) [Idazoxan hydrochloride] | -11.8% | 7.7% | 27.7% | 9.5% | 27.1% | 122% | 133% | 112% | 69.8% | 83.9% |
| Oc1ccc2c3c1O[C@H]1c4[nH]c5c(c4C[C@@]4(O)[C@@H](C2)N(CC2CC2)CC[C@]314)C[C@@]1(O)[C@H]2Cc3ccc(O)c4c3[C@@]1(CCN2CC1CC1)[C@H]5O4 [nor-Binaltorphimine dihydrochloride] | -24.2% | -6.8% | -7% | -18.1% | 0.9% | 99.8% | 118% | 107% | 102% | 111% |
| c1ccc2c(c1)[I+]c1ccccc1-2 [Diphenyleneiodonium chloride] | -1.3% | 14.5% | 11.5% | 25.6% | 29.6% | 70.1% | 71.3% | 52.9% | 39.3% | 67.6% |

Full records, quoted from the list. Order of values: loss of total cells (Human fetal astrocytes [1]; 1.39 µM)	loss of total cells (Human fetal astrocytes [1]; 2.78 µM)	loss of total cells (Human fetal astrocytes [1]; 5.56 µM)	loss of total cells (Human fetal astrocytes [1]; 11.11 µM)	loss of total cells (Human fetal astrocytes [1]; 22.22 µM)	synaptosome phagocytosis (Human fetal astrocytes [2]; 1.39 µM)	synaptosome phagocytosis (Human fetal astrocytes [2]; 2.78 µM)	synaptosome phagocytosis (Human fetal astrocytes [2]; 5.56 µM)	synaptosome phagocytosis (Human fetal astrocytes [2]; 11.11 µM)	synaptosome phagocytosis (Human fetal astrocytes [2]; 22.22 µM)
`C[C@H]1OC[C@@H](C[N+](C)(C)C)O1` [(+)-cis-Dioxolane iodide] in the list: 18%	-1.7%	-9.1%	-11.2%	-4%	114%	83.1%	95.4%	108%	106%
`CC(=O)OCC1=C(C(=O)[O-])N2C(=O)[C@@H](NC(=O)CCC[C@@H](N)C(=O)[O-])[C@H]2SC1.[Zn+2]` [Cephalosporin C zinc salt] in the list: 9.9%	-15.3%	-16.1%	-4%	16.2%	139%	124%	94.3%	102%	117%
